Measured values published in PubChem BioAssay AID1671190 (National Center for Advancing Translational Sciences (NCATS), 2021).
Out of some 580,000 compounds screened, about 6,100 (1.1%) were called active. The inconclusive results got no clear call from the source; some entries with a clear call stand among them for comparison. The call rests on the fitted dose curve; in most records, active means well fitted inhibition curve with a large enough effect; inconclusive means small, poorly fitted or top-dose-only effect, or another doubt; inactive means no such curve, though single readings can be large or run the other way. A potency beside an inconclusive call is a rough fit, not a confirmed value.

Protein sequences, listed by entry. Tags and fused reporters are not part of them. Lines headed by an entry give the natural chain unless they say otherwise; changes in a name come on top.
UniProt P18054: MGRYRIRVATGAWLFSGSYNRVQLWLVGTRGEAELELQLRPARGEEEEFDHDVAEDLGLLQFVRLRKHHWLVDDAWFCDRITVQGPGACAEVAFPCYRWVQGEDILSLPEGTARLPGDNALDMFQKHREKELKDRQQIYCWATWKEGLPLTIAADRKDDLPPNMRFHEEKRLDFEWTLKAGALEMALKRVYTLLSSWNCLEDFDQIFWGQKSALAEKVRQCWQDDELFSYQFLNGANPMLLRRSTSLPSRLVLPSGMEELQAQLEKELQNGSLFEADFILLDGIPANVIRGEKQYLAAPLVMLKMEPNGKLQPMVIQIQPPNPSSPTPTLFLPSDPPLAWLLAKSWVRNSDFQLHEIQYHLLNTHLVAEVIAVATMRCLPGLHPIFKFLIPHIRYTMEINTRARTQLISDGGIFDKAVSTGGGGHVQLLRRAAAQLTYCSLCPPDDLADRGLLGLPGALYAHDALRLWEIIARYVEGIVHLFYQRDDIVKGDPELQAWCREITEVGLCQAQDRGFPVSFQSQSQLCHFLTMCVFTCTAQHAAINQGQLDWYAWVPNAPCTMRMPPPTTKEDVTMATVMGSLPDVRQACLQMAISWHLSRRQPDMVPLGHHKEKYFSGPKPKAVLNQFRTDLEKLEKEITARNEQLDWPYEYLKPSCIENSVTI

Biological target: Polyunsaturated fatty acid lipoxygenase ALOX12 (Homo sapiens) (UniProt P18054)
Experiment: Primary qHTS assay for inhibitors of human arachidonate 12S-lipoxygenase (ALOX12): Round 2
Conditions: purified 12hLO, xylenol orange hydroperoxide absorbance; activity change, negative = inhibition: at 108 µM (top of the series) unless noted
Procedure, shortened: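 Hydroperoxide product was detected by ferrous iron/xylenol orange as the 573 to 405 nm absorbance ratio. Arachidonic acid at 40 uM (final) was turned over for 30 min at room temperature by 150 nM human 12hLO, pH 7.0 Hepes buffer, after 15 min compound preincubation.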
On the % scale 0 is the no-effect control and ±100 the full control effect; potency means the concentration at half of the fitted maximal effect.

| SMILES | activity change, negative = inhibition | Potency |
| --- | --- | --- |
| CCCCCNC(=O)CCc1c(C)nc2nc(N)nn2c1C | inactive: 9.11% |  |
| c1ccc([C@H]2CNCCN2CCc2cccc3ccccc23)cc1 |  | inconclusive: 112 µM [inhibitor, single point] |
| c1ccc(OCCNc2ccn3nc(-c4ccc(OCCN5CCOCC5)cc4)cc3n2)cc1 | inactive: 3.97% |  |
| CCc1nnc2sc(-c3ccc(OC)c(NC(=O)C(C)(C)C)c3)nn12 | inactive: -7.31% |  |
| C=CCc1cc(C)ccc1OCCOCCN1CCN(C)CC1 |  | inconclusive: 1.78 µM [inhibitor, full curve, poor fit] |
| COc1cccc(C(=O)Nc2ccccc2-c2ccccc2)c1 |  | inconclusive: 3.98 µM [inhibitor, single point] |
| Cn1cccc1C(=O)OCC(=O)Nc1ccc2c(c1)OCCO2 | inactive: 0.854% |  |
| NC(=O)CSc1nnnn1CC(CC(=O)O)c1ccccc1 (stereo not drawn) |  | inconclusive: 50.1 µM [inhibitor, partial curve, poor fit] |
| COc1ccc(C(=O)C2CCCN(Cc3cccn3-c3ccccn3)C2)c(C)c1 (stereo not drawn) |  | inconclusive: 89.1 µM [inhibitor, partial curve, poor fit] |
| Cc1cccc(NC(=O)Cn2c(SCC(=O)NCc3ccccc3)nc3ccccc32)c1C |  | inconclusive: 100 µM [inhibitor, single point] |
| CCCNC(=O)c1c(O)c2cccc3c2n(c1=O)CCC3 |  | inconclusive: 1.58 µM [inhibitor, full curve, poor fit] |
| COC(=O)c1ccccc1S(=O)(=O)N1CCC(C(=O)NCCc2ccco2)CC1 | inactive: 36.2% |  |
| CCS(=O)(=O)Nc1ccc(C2=NN(S(=O)(=O)c3ccc(F)cc3)C(c3ccco3)C2)cc1 (stereo not drawn) |  | inconclusive: 35.5 µM [inhibitor, partial curve, poor fit] |
| COc1ccc(NC(=O)CCN2CCN(C/C=C/c3ccccc3)CC2)cc1 |  | inconclusive: 50.1 µM [inhibitor, partial curve, poor fit] |
| S=C(NCc1ccc(Cl)cc1)Nc1ccccc1 |  | inconclusive: 50.1 µM [inhibitor, partial curve, poor fit] |
| Cc1cccc(C(C)(C)C)c1OCCCCN1CCCC1 |  | inconclusive: 2 µM [inhibitor, full curve, poor fit] |
| Cc1cccc(Cn2c(SCc3ccccc3)nc3c2c(=O)[nH]c(=O)n3C)c1 |  | inconclusive: 31.6 µM [inhibitor, partial curve, poor fit] |
| CCN1CCN(C(=O)CN(Cc2ccccc2)S(C)(=O)=O)CC1 |  | inconclusive: 112 µM [inhibitor, partial curve, poor fit] |
| O=C(/C=C/c1ccc(Cl)cc1)c1cccnc1 |  | inconclusive: 22.4 µM [inhibitor, partial curve, poor fit] |
| COc1ccccc1C(=O)NC(CCSC)C(=O)OCC(=O)N1CCN(S(=O)(=O)c2ccc(C)cc2)CC1 (stereo not drawn) |  | inconclusive: 89.1 µM [inhibitor, partial curve, poor fit] |
| Cc1noc(C)c1COc1ccc(C(=O)N2CCN(CC(=O)N3CCCC3)CC2)cc1 | inactive: -5.14% |  |
| COc1ccc(NC(=O)CN(C)C(=O)c2cc(-c3ccco3)nc3ccccc23)cc1 |  | inconclusive: 10 µM [inhibitor, full curve, poor fit] |

| SMILES | activity change, negative = inhibition | Potency |
| --- | --- | --- |
| COCCn1cc2c3c(cccc31)CN(C(=O)CCCc1ccccc1)CC2 |  | inconclusive: 22.4 µM [inhibitor, full curve, poor fit] |
| Cc1ccc(-n2ncc3c(=O)[nH]c(SCC(=O)N4CCOCC4)nc32)cc1 |  | inconclusive: 112 µM [inhibitor, single point] |
| O=C1CCN(Cc2ccccc2)C=C1c1ccc(Cl)cc1 | inactive: -55.5% |  |
| CNc1c(NC(=O)C2CC(=O)N(c3ccc(C)cc3)C2)c(=O)oc2ccccc12 (stereo not drawn) |  | inconclusive: 50.1 µM [inhibitor, partial curve, poor fit] |
| COCCN1C(=O)N[C@@H](c2ccccc2)C(C(=O)OC)=C1C |  | inconclusive: 89.1 µM [inhibitor, single point] |
| CC(C)c1cccc(OCCN2CCCC2)c1 |  | active: 0.631 µM |
| CCC(C)(C)NC(=O)c1cccc2c1CCN2C(=O)Nc1cccc(C)c1 | inactive: -8.39% |  |
| COc1ccc(CC(=O)NCC(c2cccs2)S(=O)(=O)c2ccc(F)cc2)cc1 (stereo not drawn) | inactive: -14.5% |  |
| Cc1ccc(CNC(=O)c2c(Nc3ccccc3C)sc(C(=O)c3ccc(F)cc3)c2N)cc1 |  | inconclusive: 17.8 µM [inhibitor, partial curve, poor fit] |
| C/C(CC(=O)Nc1ccc(N(C)C)cc1)=N\NC(=O)c1ccncc1 | inactive: 16.3% |  |
| N#Cc1cccc(NC(=O)Nc2cccs2)c1 |  | inconclusive: 31.6 µM [inhibitor, partial curve, poor fit] |
| CC(=O)Nc1ccc(-c2cc3ccccc3o2)cc1 | inactive: -13.8% |  |
| Cc1oc(-c2cccs2)nc1CC(=O)Nc1ccc(F)c(F)c1 | inactive: 14.4% |  |
| Cn1nc(C(C)(C)C)c([N+](=O)[O-])c1C(=O)N1CCOCC1 | inactive: 0% |  |
| O=C(Cc1cccc(NC(=O)C2CCCN(C(=O)CCc3ccccc3)C2)c1)Nc1cccc(C(=O)N2CCCC2)c1 (stereo not drawn) |  | inconclusive: 56.2 µM [inhibitor, partial curve, poor fit] |
| CC1CCN(c2nc3c(c(=O)[nH]c(=O)n3C)n2CCSc2nc3ccccc3[nH]2)CC1 |  | inconclusive: 112 µM [inhibitor, single point] |
| Cc1sc(NC(=O)CCCC(=O)O)c(C(N)=O)c1-c1ccccc1 |  | inconclusive: 31.6 µM [inhibitor, partial curve, poor fit] |
| CCc1cnc2c(c1SC(C(C)=O)C(=O)N(C)C)c(=O)n(C)c(=O)n2C (stereo not drawn) |  | inconclusive: 50.1 µM [inhibitor, partial curve, poor fit] |
| CCOc1ccccc1NC(=O)Cn1c(=O)c(-c2noc(C)n2)c2n(c1=O)CCCC2 | inactive: 39.7% |  |
| O=C(NCc1ccco1)c1cc2cc(Br)ccc2o1 |  | inconclusive: 44.7 µM [inhibitor, partial curve, poor fit] |
| COC(=O)[C@@]12C[C@@H](CC(=O)NCC34CC5CC(CC(C5)C3)C4)C(=O)N(CCc3ccc(OC)c(OC)c3)C1=CCC(C)(C)C2 |  | inconclusive: 100 µM [inhibitor, single point] |

One compound at a time (already shown):
COc1ccc(CC(=O)NCC(c2cccs2)S(=O)(=O)c2ccc(F)cc2)cc1 (stereo not drawn) in the list: activity change, negative = inhibition: inactive: -14.5%
COCCn1cc2c3c(cccc31)CN(C(=O)CCCc1ccccc1)CC2 in the list: Potency: inconclusive: 22.4 µM [inhibitor, full curve, poor fit]
Cn1nc(C(C)(C)C)c([N+](=O)[O-])c1C(=O)N1CCOCC1 in the list: activity change, negative = inhibition: inactive: 0%
CC1CCN(c2nc3c(c(=O)[nH]c(=O)n3C)n2CCSc2nc3ccccc3[nH]2)CC1 in the list: Potency: inconclusive: 112 µM [inhibitor, single point]
